Laboratory results as given in PubChem BioAssay AID651640 (Broad Institute, 2012).
Out of some 350,000 compounds screened, about 6,000 (1.7%) were called active. The shares of active, inactive and inconclusive entries below differ from those in the screen. No stated cut-off is given here; in the data, active means CPE inhibition above about 20% (passing the limit was not always enough); inconclusive means no clear call, values can overlap the other calls; tested in BHK-21 cells.

Assay: protection of cells from dengue 2 killing – plate reader, single concentration, primary screen (AID 651640);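 further: 0% = median of neutral control wells and 100% = median of positive control wells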
Settings: DENV2-infected cells, cytopathic effect rescue, at 9.99 µM, hits give high values
For `O=C(c1cc(-c2ccccc2)n[nH]1)N1CCN(S(=O)(=O)c2ccccc2)CC1`, the CPE inhibition was active: 43%. In the case of `Cc1c(C(=O)OCC(=O)Nc2c(C)n(C)n(-c3ccccc3)c2=O)cccc1[N+](=O)[O-]`, the CPE inhibition is reported as inconclusive: 23.9%. With `COc1ccc(NC(=O)N(C)C[C@@H]2OCCCC[C@H](C)Oc3ccc(NS(C)(=O)=O)cc3C(=O)N([C@@H](C)CO)C[C@H]2C)cc1` the CPE inhibition was inactive: 2.91%. With `CCOC(=O)[C@H]1[C@H]2COc3ccc(Br)cc3[C@@H]2N2C(=O)CN(C)C(=O)[C@@]12C` the CPE inhibition was inconclusive: 52%. With `O=C(Nc1ccccc1Cl)N1[C@H](CO)[C@@H]2c3ccccc3NC[C@@H]21` the CPE inhibition was inactive: -3.51%. In the case of `CC12CCC(=O)N1C(C(=O)Oc1cccc(F)c1)CS2` (stereo not given), the CPE inhibition is reported as inconclusive: 33.7%. In the case of `CN(C)c1ccc2c(c1)[C@H]1C[C@H](CC(=O)NCc3ccc(Cl)cc3)O[C@@H](CO)[C@H]1O2`, the CPE inhibition is reported as inconclusive: 20.8%. In the case of `O=C(C(=O)N1CCC(Cc2ccccc2)CC1)c1ccccc1`, the CPE inhibition is reported as inconclusive: 43.8%. With `O=C(Cc1ccccc1)N[C@@H]1CC[C@H](CC(=O)N2CCCCC2)O[C@@H]1CO` the CPE inhibition was inactive: -4.21%. With `CC(=O)Nc1cc(-c2ccc(N(C)C)cc2)cn2c(-c3ccc(F)cc3)cnc12` the CPE inhibition was inconclusive: 65.2%. For `NS(=O)(=O)c1ccc(CCN2C(=O)CCC2=O)cc1`, the CPE inhibition was inconclusive: 30.6%. With `C[C@H](CO)N1C[C@H](C)[C@H](CN(C)C(=O)c2ccc3c(c2)OCO3)Oc2ncc(C#CCN(C)C)cc2C1=O` the CPE inhibition was active: 24.9%. For `CC1=NC2=CC=CC3=NC(C(Cl)(Cl)Cl)=NC(=N1)N23`, the CPE inhibition was inconclusive: 38.6%. For `CC(C)N(CCNC(=O)c1nn(Cc2ccccc2)c(=O)c2ccccc12)C(C)C`, the CPE inhibition was inconclusive: 20.8%. In the case of `C[C@H](CO)N1C[C@H](C)[C@H](CN(C)Cc2ccc3c(c2)OCO3)Oc2ccc(NC(=O)Nc3ccc(C(F)(F)F)cc3)cc2CC1=O`, the CPE inhibition is reported as active: 53.7%. For `COc1cc2c(c(OC)c1OC)[C@@]1(c3ccccc3)CCCC[C@H]1[C@@H]2NC(=O)C(F)(F)F`, the CPE inhibition was active: 24%. In the case of `CCNc1nc(NCC)nc(OCCOC(=O)Nc2ccccc2)n1`, the CPE inhibition is reported as inconclusive: 43.5%. For `O=C(c1cccc(F)c1)N1CC(=O)N2[C@@H](CO)[C@@H](c3ccc(-c4ccccc4F)cc3)[C@@H]2C1`, the CPE inhibition was inactive: 16.3%. For `CN1CCCCC(NC(=O)c2ccccn2)C1=O` (stereo not given), the CPE inhibition was inconclusive: 24%. In the case of `C[C@H](CO)N1C[C@H](C)[C@H](CN(C)C)Oc2c(NC(=O)Nc3cccc4ccccc34)cccc2C1=O`, the CPE inhibition is reported as active: 33.6%. With `C[C@@H]1CCCCO[C@@H](CN(C)Cc2ccc(C(F)(F)F)cc2)[C@@H](C)CN([C@H](C)CO)C(=O)c2cc(NC(=O)Cc3ccccc3)ccc2O1` the CPE inhibition was inconclusive: 20.3%. With `COC(=O)c1cc2cc(OC)ccc2n1C` the CPE inhibition was inconclusive: 54.4%. In the case of `COc1ccc(C(C)(O)c2nc(-c3cccc(C#N)c3)cs2)cc1` (stereo not given), the CPE inhibition is reported as inconclusive: 22.5%. With `CCCCCCN1CCN(C2CN(Cc3ccc(C)cc3)S(=O)(=O)C2)CC1` (stereo not given) the CPE inhibition was inactive: 1.8%. For `O=C(Cc1cccnc1)N1CC2(C1)[C@H](c1ccccc1)[C@@H](CO)N2C(=O)C1CCCC1`, the CPE inhibition was inactive: -1.18%. For `CC(C)c1ccc(NC(=O)COc2ccccc2)cc1`, the CPE inhibition was inactive: -1.92%. For `C[C@H](CO)N1C[C@H](C)[C@H](CN(C)C(=O)Nc2cccc3ccccc23)OCCCC[C@H](C)Oc2ccc(NC(=O)Nc3ccc(F)cc3)cc2C1=O`, the CPE inhibition was active: 24.9%. In the case of `C[C@H](CO)N1C[C@H](C)[C@H](CN(C)Cc2ccccc2)Oc2ncc(C3=CCCC3)cc2C1=O`, the CPE inhibition is reported as inconclusive: 32.4%. With `CN(Cc1ccccn1)C(=O)c1ccc2nc(Cc3cccc(Cl)c3)oc2c1` the CPE inhibition was inconclusive: 52.2%. With `COc1cccc(S(=O)(=O)N(C)C[C@@H]2Oc3cc(C4=CCCC4)ccc3S(=O)(=O)N([C@H](C)CO)C[C@H]2C)c1` the CPE inhibition was active: 55.1%. In the case of `Cc1cccc(OCc2nnc(SCC(=O)Nc3cccc(C(=O)N4CCOCC4)c3)o2)c1C`, the CPE inhibition is reported as inconclusive: 56.9%. In the case of `O=C1CN(C(=O)c2cc3ccccc3oc2=O)C(c2ccc(F)cc2)c2cc(Br)ccc2N1` (stereo not given), the CPE inhibition is reported as inconclusive: 28.6%. In the case of `OC(CNC1CCCc2ccccc21)COc1c(Cl)cccc1Cl` (stereo not given), the CPE inhibition is reported as inactive: 4.01%. With `C[C@H]1CN([C@@H](C)CO)C(=O)c2cc(NC(=O)CCC(F)(F)F)ccc2O[C@@H]1CN(C)S(=O)(=O)c1cccs1` the CPE inhibition was inconclusive: 32.6%. In the case of `CC(NC(=O)c1cccc(S(=O)(=O)N2CCN(Cc3ccccc3)CC2)c1)c1ccc(Br)cc1` (stereo not given), the CPE inhibition is reported as active: 24.9%.
